Results reported in paper PMC11952958.

Tested on: NF90long + NF45
Experiment: SEC-SAXS; mass photometry
Details: 18-bp complex formation: 30 min on ice, SEC in 20 mM HEPES pH 7.5, 150 mM NaCl, 1 mM DTT; mass photometry at 10-50 nM protein; recombinant protein

UCACUUUCAUAAUGCUGGUCACUUUCAUAAUGCUGG / CCAGCAUUAUGAAAGUGACCAGCAUUAUGAAAGUGA [36-bp dsRNA (SAXS)]
binding result: binds

The exact form of at least one protein or probe is not confirmed. At least one verdict rests on a figure or table, not on a statement of the authors.
